This is one part of the list.
Compound: Cc1cc(ccc1-c1ccccc1)C(=O)N1CCCN(CC1)C(=O)CCl [compound 10]
Experiment: probe-labelled cysteine peptide fold change vs DMSO (competition) (log2 fold change); higher = less target engagement (more negative = stronger competition)
Details: 10 µM; THP-1; incubation time: 4 h
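Note: competitive profiling in live THP-1 cells: cysteine peptides tagged with an iodoacetamide desthiobiotin (IA-DTB) probe, intensity after compound treatment relative to DMSO-treated cells.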

The chains behind the UniProt entries cited, without tags or fusion partners. Where a name states a change or a piece, a line headed by the entry shows the natural chain unless it says otherwise.
UniProt O60488: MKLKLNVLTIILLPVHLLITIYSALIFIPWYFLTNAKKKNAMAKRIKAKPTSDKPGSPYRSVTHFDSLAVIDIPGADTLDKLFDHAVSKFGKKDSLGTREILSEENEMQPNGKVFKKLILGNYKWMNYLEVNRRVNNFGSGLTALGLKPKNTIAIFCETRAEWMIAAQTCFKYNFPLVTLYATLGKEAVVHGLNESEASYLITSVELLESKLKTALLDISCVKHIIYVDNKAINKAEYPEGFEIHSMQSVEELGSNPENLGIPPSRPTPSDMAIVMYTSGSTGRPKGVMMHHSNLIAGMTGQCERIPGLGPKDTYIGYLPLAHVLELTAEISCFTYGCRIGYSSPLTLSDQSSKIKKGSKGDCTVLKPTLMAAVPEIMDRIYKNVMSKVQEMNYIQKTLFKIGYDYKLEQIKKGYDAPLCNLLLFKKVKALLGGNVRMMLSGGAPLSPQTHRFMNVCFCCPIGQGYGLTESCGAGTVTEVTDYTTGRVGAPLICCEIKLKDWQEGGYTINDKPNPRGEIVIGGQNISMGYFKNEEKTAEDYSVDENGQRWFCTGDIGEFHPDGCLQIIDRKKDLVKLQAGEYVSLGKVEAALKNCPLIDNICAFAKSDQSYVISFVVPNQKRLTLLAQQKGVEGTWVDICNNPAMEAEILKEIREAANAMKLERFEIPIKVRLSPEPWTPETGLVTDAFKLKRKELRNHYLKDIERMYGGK
UniProt O14672: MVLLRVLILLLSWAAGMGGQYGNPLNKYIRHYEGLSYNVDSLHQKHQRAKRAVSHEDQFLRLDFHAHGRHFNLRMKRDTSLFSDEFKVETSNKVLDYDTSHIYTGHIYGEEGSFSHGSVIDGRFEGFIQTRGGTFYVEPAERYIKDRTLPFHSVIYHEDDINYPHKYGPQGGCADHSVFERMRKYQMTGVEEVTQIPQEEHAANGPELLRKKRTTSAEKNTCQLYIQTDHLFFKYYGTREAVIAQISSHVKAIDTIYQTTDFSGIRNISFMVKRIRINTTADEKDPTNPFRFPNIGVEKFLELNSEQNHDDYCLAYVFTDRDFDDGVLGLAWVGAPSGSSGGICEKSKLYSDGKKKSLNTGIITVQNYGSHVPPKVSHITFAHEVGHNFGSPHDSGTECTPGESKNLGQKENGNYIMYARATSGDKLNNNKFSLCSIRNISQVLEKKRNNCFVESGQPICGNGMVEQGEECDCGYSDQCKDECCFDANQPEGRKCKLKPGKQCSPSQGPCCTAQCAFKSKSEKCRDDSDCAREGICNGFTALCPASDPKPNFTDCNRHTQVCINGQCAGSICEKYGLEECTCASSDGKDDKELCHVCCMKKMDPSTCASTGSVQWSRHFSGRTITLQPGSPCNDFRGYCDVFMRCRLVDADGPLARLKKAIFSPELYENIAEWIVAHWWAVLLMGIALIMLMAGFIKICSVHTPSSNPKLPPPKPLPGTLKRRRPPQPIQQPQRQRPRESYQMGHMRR
UniProt P30566: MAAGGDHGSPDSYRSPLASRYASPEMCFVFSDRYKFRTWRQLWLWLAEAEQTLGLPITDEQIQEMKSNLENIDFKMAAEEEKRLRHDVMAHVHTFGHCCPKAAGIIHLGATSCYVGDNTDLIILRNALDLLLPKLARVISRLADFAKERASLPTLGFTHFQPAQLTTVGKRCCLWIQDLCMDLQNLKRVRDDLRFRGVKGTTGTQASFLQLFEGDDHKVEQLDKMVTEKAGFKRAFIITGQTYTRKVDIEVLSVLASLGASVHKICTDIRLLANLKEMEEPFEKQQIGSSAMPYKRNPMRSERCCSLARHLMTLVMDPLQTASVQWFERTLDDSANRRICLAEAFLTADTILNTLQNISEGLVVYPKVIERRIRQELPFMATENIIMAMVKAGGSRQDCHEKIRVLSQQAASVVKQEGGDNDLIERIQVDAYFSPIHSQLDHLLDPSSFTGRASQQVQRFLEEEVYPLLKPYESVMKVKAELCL
UniProt Q9Y4W6: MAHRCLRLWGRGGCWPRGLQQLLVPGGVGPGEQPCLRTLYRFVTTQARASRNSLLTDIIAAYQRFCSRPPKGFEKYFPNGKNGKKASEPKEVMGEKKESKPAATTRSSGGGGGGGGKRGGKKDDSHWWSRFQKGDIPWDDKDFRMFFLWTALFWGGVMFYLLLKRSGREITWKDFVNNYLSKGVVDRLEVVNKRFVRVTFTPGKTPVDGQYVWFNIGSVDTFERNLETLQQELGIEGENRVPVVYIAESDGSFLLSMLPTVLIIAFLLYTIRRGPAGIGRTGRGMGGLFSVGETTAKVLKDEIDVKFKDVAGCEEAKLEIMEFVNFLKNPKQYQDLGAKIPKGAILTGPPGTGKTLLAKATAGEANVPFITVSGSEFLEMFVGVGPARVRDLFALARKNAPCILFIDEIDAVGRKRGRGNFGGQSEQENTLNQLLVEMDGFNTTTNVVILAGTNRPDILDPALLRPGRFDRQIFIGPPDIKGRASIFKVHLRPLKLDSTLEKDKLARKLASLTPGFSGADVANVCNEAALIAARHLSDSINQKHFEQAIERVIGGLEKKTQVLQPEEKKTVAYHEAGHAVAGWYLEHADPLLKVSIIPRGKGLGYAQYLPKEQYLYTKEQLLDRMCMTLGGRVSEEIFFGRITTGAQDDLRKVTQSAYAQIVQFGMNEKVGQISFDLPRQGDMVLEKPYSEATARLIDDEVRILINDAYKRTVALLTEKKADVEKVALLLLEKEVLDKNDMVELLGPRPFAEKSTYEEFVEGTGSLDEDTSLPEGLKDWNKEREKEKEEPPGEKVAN
UniProt Q9BSE5: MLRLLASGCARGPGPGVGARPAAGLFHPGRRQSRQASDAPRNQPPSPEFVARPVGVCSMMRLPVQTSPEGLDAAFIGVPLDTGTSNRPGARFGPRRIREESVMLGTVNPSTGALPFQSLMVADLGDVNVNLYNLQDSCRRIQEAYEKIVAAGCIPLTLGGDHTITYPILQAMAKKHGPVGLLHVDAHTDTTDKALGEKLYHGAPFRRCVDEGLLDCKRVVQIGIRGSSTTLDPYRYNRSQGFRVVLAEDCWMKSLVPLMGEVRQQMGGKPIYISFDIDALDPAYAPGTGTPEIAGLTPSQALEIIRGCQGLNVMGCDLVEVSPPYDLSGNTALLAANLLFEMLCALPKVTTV
UniProt Q9NZ32, whole entry, looked up: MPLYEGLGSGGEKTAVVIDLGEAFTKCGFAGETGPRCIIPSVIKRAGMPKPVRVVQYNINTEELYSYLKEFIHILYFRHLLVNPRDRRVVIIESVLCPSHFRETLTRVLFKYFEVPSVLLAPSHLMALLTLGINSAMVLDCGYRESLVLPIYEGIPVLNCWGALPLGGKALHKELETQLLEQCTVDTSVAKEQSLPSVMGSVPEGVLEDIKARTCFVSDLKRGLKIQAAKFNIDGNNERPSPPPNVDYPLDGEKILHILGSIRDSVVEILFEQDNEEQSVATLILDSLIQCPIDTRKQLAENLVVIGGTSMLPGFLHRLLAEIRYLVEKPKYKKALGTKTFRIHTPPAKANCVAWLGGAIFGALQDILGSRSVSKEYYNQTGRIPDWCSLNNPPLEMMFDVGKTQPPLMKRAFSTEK
UniProt Q9H2P0: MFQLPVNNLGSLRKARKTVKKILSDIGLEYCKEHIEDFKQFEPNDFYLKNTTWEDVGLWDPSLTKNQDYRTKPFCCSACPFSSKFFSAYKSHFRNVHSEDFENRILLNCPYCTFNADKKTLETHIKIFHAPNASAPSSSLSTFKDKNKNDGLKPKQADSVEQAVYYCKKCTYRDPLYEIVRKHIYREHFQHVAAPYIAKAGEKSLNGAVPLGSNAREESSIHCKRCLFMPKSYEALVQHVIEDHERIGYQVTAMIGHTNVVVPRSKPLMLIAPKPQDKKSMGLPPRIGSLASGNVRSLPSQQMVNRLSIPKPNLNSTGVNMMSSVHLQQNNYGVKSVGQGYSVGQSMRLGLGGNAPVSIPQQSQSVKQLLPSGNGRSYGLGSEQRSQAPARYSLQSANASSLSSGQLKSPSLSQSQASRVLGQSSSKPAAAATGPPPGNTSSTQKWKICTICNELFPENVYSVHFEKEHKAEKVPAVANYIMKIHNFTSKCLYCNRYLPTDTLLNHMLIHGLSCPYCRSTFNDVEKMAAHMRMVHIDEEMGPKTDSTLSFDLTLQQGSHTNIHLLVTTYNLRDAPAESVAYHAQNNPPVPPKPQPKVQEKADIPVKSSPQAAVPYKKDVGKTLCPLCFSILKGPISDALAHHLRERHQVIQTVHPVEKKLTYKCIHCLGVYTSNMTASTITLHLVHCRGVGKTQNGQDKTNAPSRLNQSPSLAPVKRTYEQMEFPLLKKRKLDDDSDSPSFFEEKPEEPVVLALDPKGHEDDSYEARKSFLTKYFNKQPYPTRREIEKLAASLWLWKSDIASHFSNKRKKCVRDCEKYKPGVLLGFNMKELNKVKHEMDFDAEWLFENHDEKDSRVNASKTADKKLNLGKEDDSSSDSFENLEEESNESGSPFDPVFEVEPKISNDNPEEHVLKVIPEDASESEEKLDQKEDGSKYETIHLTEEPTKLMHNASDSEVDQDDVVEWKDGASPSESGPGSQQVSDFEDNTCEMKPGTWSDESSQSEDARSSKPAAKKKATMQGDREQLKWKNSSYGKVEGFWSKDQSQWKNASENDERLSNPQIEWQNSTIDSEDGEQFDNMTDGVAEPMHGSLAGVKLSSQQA
UniProt P35573: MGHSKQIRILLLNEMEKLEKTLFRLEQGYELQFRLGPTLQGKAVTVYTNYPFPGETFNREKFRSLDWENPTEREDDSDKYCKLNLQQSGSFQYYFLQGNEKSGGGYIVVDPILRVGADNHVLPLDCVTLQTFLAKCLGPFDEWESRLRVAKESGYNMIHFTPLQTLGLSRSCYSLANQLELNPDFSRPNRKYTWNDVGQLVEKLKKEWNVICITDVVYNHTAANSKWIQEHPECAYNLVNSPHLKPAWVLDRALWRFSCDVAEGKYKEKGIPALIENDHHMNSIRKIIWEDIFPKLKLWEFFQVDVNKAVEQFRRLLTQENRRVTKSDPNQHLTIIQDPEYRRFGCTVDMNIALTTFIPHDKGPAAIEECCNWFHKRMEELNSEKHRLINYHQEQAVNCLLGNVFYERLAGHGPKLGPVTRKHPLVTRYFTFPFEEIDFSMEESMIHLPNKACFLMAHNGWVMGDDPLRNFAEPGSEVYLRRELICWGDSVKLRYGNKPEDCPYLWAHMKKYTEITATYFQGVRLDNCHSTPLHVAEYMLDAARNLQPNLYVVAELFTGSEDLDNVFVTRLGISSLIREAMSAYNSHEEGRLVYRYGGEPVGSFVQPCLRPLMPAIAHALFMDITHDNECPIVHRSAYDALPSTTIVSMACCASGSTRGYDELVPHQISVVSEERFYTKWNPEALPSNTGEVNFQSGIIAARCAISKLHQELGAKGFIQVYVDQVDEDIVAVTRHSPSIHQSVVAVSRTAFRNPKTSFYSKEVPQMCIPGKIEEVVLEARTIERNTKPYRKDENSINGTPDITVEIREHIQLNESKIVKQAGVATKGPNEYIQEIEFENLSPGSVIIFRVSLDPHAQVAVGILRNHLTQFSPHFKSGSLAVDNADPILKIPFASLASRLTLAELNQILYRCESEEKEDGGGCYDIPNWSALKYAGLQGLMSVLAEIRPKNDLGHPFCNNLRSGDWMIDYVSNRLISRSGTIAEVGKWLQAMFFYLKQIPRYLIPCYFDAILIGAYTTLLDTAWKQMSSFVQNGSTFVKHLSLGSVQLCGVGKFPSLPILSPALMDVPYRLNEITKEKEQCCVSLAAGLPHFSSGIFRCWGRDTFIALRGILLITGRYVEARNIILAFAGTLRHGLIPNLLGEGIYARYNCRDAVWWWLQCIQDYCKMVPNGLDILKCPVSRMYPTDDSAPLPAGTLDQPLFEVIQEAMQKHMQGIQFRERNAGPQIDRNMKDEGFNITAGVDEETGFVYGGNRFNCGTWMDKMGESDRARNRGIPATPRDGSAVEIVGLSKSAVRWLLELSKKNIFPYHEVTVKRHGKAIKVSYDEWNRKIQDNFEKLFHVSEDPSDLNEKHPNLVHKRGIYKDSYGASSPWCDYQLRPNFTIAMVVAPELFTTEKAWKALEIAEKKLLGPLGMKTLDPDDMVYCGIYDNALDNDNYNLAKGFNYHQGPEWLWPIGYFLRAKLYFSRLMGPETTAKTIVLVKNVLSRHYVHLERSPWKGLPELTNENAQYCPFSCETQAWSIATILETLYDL
UniProt P54922: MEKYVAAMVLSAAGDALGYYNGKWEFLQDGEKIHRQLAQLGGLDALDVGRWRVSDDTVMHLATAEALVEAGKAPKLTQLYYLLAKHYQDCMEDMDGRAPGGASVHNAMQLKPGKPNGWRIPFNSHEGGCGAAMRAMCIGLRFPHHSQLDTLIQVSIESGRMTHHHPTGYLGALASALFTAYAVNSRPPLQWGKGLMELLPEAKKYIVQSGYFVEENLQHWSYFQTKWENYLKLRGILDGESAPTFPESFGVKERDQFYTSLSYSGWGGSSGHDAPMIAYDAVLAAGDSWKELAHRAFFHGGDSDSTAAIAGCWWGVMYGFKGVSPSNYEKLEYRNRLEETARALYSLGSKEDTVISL

Row | Target | probe-labelled cysteine peptide fold change
1 | ACSL4_O60488_303_GVMMHHSNLIAGMTGQCER (UniProt O60488) | 0.0362
2 | ADAM10_O14672_632_TITLQPGSPCNDFR (UniProt O14672) | -0.0399
3 | ACTR3_P61158_394_YAVWFGGSMLASTPEFYQVCHTK (UniProt P61158) | -0.0129
4 | ADSL_P30566_99_HDVMAHVHTFGHCCPK (UniProt P30566) | -0.0749
5 | ADA_P00813_262_LRQENMHFEICPWSSYLTGAWKPDTEHAVIR (UniProt P00813) | -0.101
6 | AFG3L2_Q9Y4W6_313_DVAGCEEAK (UniProt Q9Y4W6) | -0.0431
7 | AGBL1_Q96MI9_809_CSLSGEDLNR (UniProt Q96MI9) | -0.0904
8 | AGMAT_Q9BSE5_216_CVDEGLLDCKR (UniProt Q9BSE5) | 0.167
9 | ACTR10_Q9NZ32_388_IPDWCSLNNPPLEMMFDVGK (UniProt Q9NZ32) | 0.257
10 | ADPRHL2_Q9NX46_132_CRDVFEPAR (UniProt Q9NX46) | -0.136
11 | ADGRL2_O95490_42_RELSCEGYSIDLR (UniProt O95490) | 0.175
12 | ADK_P55263_160_SLIANLAAANCYK (UniProt P55263) | -0.0119
13 | ADRM1_Q16186_88_VPQCPSGR (UniProt Q16186) | -0.599
14 | ADNP_Q9H2P0_514_YLPTDTLLNHMLIHGLSCPYCR (UniProt Q9H2P0) | 0.101
15 | ADSS_P30520_58_VVDLLAQDADIVCR (UniProt P30520) | 0.0609
16 | ACSL4_O60488_564_WFCTGDIGEFHPDGCLQIIDR (UniProt O60488) | 0.122
17 | ADD1_P35611_236_CVVHIHTPAGAAVSAMK (UniProt P35611) | 0.0419
18 | ACTN4_O43707_793_ACLISLGYDVENDRQGEAEFNR (UniProt O43707) | 0.11
19 | AGL_P35573_234_WIQEHPECAYNLVNSPHLK (UniProt P35573) | -0.0163

Row | Target | probe-labelled cysteine peptide fold change
20 | ACTR3_P61158_12_LPACVVDCGTGYTK (UniProt P61158) | -0.12
21 | ADAR_P55265_392_RNAEFLTCNIPTSNASNNMVTTEK (UniProt P55265) | -0.0948
22 | AFG3L2_Q9Y4W6_525_KLASLTPGFSGADVANVCNEAALIAAR (UniProt Q9Y4W6) | -0.0223
23 | ACOX3_O15254_220_LCVPGDQCHGLHPFIVQIRDPK (UniProt O15254) | -0.277
24 | ADPRH_P54922_90_HYQDCMEDMDGR (UniProt P54922) | 0.0025
25 | ADAM17_P78536_630_KGKPCTVGFCDMNGK (UniProt P78536) | -0.213
26 | ACTR2_P61160_20_CGYAGSNFPEHIFPALVGR (UniProt P61160) | -0.00703
27 | AGFG1_P52594_32_CFDCDQR (UniProt P52594) | -0.00729
28 | ACTR10_Q9NZ32_27_CGFAGETGPR (UniProt Q9NZ32) | 0.211
29 | ACTR3_P61158_34_LGYAGNTEPQFIIPSCIAIK (UniProt P61158) | -0.0452
30 | ADPGK_Q9BRR6_415_VAGTQACATETIDTSR (UniProt Q9BRR6) | -0.224
31 | AGL_P35573_767_EVPQMCIPGK (UniProt P35573) | -0.0748
32 | AGMAT_Q9BSE5_250_VVLAEDCWMK (UniProt Q9BSE5) | 0.0518
33 | ADSL_P30566_113_AAGIIHLGATSCYVGDNTDLIILR (UniProt P30566) | -0.268
34 | ACSS2_Q9NR19_246_CCIVVK (UniProt Q9NR19) | 0.203
35 | ADAM10_O14672_607_DDKELCHVCCMKKMDPSTCASTGSVQWSR (UniProt O14672) | -0.0238
36 | ACTR2_P61160_221_LCYVGYNIEQEQK (UniProt P61160) | 0.175
37 | AFF4_Q9UHB7_338_EMTHSWPPPLTAIHTPCK (UniProt Q9UHB7) | -0.0876

Reference: the supplement of paper PMC12067093, “Discovery and optimisation of a covalent ligand for TRIM25 and its application to targeted protein ubiquitination” (Chemical Science, 2025)
